Data as given in PubChem BioAssay AID1159578 (Peter MacCallum Cancer Centre, 2015).
Test: 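Knock-downs that alter how fast lymphatic endothelial cells migrate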 (primary screen). System: human lymphatic endothelial cells. Knock-down reagent: siRNA pool against human genes, 40 nM. Timing: 48 h after transfection. Measured: 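Cells stained with dye and imaged after a scratch; covered wound area and nuclei counted, duplicates averaged, migration set against mock wells and turned into a robust z-score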. Direction: migration robust z-score: higher = faster migration into the scratch; nuclei per well: higher = more cells in the well. Hit rule: 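Migration changed when robust z exceeds 2 or falls below -2 and mean nuclei number is at least 3300; otherwise not called changed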. Meaning of the calls: active = migration changed; inactive = no migration change, or too few cells.
Here is one part, drawn at random, of about 18,000 deposited reagents. About 1,030 of all reagents (5.7%) count as active. 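Inactive calls also include pools with fewer than 3300 nuclei, whose migration was not assessed.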 The raw values are shown without normalisation. Unmarked entries are inactive. Reagents against one gene are numbered here. Further read-outs or replicates are left out here.

With knock-down of RAB3D (RAB3D, member RAS oncogene family), the record shows migration robust z-score -0.73; migration class with cell-count check migration z between -2 and 2; enough cells; nuclei per well, duplicate mean 6070.
With knock-down of RAET1L (retinoic acid early transcript 1L), the record shows migration robust z-score 0.24; migration class with cell-count check migration z between -2 and 2; enough cells; nuclei per well, duplicate mean 6158.
Knock-down of GCA (grancalcin) resulted in: migration robust z-score 0.05; migration class with cell-count check migration z between -2 and 2; enough cells; nuclei per well, duplicate mean 4588.
NPC2 (NPC intracellular cholesterol transporter 2) scored migration robust z-score 0.83; migration class with cell-count check migration z between -2 and 2; enough cells; nuclei per well, duplicate mean 5816.
RBM11 (RNA binding motif protein 11) scored migration robust z-score -1.04; migration class with cell-count check migration z between -2 and 2; enough cells; nuclei per well, duplicate mean 5350.
Against WDPCP (WD repeat containing planar cell polarity effector), the entry reads migration robust z-score -1.04; migration class with cell-count check migration z between -2 and 2; enough cells; nuclei per well, duplicate mean 4384.
Knock-down of C18orf54 (chromosome 18 open reading frame 54) resulted in: migration robust z-score 1.05; migration class with cell-count check migration z between -2 and 2; enough cells; nuclei per well, duplicate mean 5868.
DARS1 (aspartyl-tRNA synthetase 1) gave migration robust z-score -0.18; migration class with cell-count check migration z between -2 and 2; enough cells; nuclei per well, duplicate mean 5221.
ZNF512B (zinc finger protein 512B) showed migration robust z-score -0.51; migration class with cell-count check migration z between -2 and 2; enough cells; nuclei per well, duplicate mean 6791.
SEMA4D (semaphorin 4D) #1 gave migration robust z-score -0.13; migration class with cell-count check migration z between -2 and 2; enough cells; nuclei per well, duplicate mean 4328.
SEMA4D (semaphorin 4D) #2 gave migration robust z-score 0.23; migration class with cell-count check migration z between -2 and 2; enough cells; nuclei per well, duplicate mean 5826.
For S100A2 (S100 calcium binding protein A2), the values are migration robust z-score -0.08; migration class with cell-count check migration z between -2 and 2; enough cells; nuclei per well, duplicate mean 5328.
After knock-down of RHNO1 (RAD9-HUS1-RAD1 interacting nuclear orphan 1) the results were migration robust z-score -1.16; migration class with cell-count check migration z between -2 and 2; enough cells; nuclei per well, duplicate mean 4468.
Knock-down of MIEF2 (mitochondrial elongation factor 2) gave: migration robust z-score 1.48; migration class with cell-count check migration z between -2 and 2; enough cells; nuclei per well, duplicate mean 5046.
ZNF92 (zinc finger protein 92) gave migration robust z-score 0.51; migration class with cell-count check migration z between -2 and 2; enough cells; nuclei per well, duplicate mean 5436.
With knock-down of DUSP28 (dual specificity phosphatase 28) the results were migration robust z-score 0.88; migration class with cell-count check migration z between -2 and 2; enough cells; nuclei per well, duplicate mean 6030.
Depletion of TOR1A (torsin family 1 member A) gave: migration robust z-score 0; migration class with cell-count check migration z between -2 and 2; enough cells; nuclei per well, duplicate mean 4720.
Against ATP11AUN (ATP11A upstream neighbor lncRNA), the entry reads migration robust z-score 0.73; migration class with cell-count check migration z between -2 and 2; enough cells; nuclei per well, duplicate mean 5642.
Silencing of TIAM2 (TIAM Rac1 associated GEF 2) gave: migration robust z-score -0.18; migration class with cell-count check migration z between -2 and 2; enough cells; nuclei per well, duplicate mean 5178.
For OTX2 (orthodenticle homeobox 2) the deposit lists migration robust z-score -0.58; migration class with cell-count check migration z between -2 and 2; enough cells; nuclei per well, duplicate mean 6906.
After knock-down of WASL (WASP like actin nucleation promoting factor), the screen gave migration robust z-score 0.86; migration class with cell-count check migration z between -2 and 2; enough cells; nuclei per well, duplicate mean 5470.
Silencing of TFF2 (trefoil factor 2) gave: migration robust z-score 0.66; migration class with cell-count check migration z between -2 and 2; enough cells; nuclei per well, duplicate mean 5911.
Against AKR1A1 (aldo-keto reductase family 1 member A1), the entry reads migration robust z-score 0.91; migration class with cell-count check migration z between -2 and 2; enough cells; nuclei per well, duplicate mean 6954.
Against RAB1B (RAB1B, member RAS oncogene family), the values are migration robust z-score -0.2; migration class with cell-count check migration z between -2 and 2; enough cells; nuclei per well, duplicate mean 4178.
SF3A1 (splicing factor 3a subunit 1) gave migration robust z-score -0.4; migration class with cell-count check migration z between -2 and 2; enough cells; nuclei per well, duplicate mean 4564.
With knock-down of SYT6 (synaptotagmin 6), the record shows migration robust z-score 0.16; migration class with cell-count check migration z between -2 and 2; enough cells; nuclei per well, duplicate mean 5796.
Knock-down of YIPF1 (Yip1 domain family member 1) resulted in: migration robust z-score 1.5; migration class with cell-count check migration z between -2 and 2; enough cells; nuclei per well, duplicate mean 6372.

Targets listed so far whose target name starts with W or w (2):
WDPCP (WD repeat containing planar cell polarity effector) → migration robust z-score: -1.04; migration class with cell-count check: migration z between -2 and 2; enough cells; nuclei per well, duplicate mean: 4384
WASL (WASP like actin nucleation promoting factor) → migration robust z-score: 0.86; migration class with cell-count check: migration z between -2 and 2; enough cells; nuclei per well, duplicate mean: 5470
